PMC5996148
“And” between values parts separate entries of the source, which are not always exact repeats. Identical values can stand only once. Some of the results follow. For some assays here: Construct or isoform of the protein are uncertain.

Columns and labels:
Assay in all cases: protein microarray (ProtoArray v5.0), streptavidin-Alexa Fluor 647
Settings in all cases: 3'-biotin; 20 mM Tris (pH 7.5), 5 mM MgCl2, 100 mM KCl, 0.1% Tween-20, A/T-rich and random oligonucleotide blockers; temperature not stated; high values mean tight binding
PBEF1 (human) = tested on: PBEF1 (human)
PBK (human) = tested on: PBK (human)
PBLD (human) = tested on: PBLD (human)
PCDHB16 (human) = tested on: PCDHB16 (human)
PCDHGC4 (human) = tested on: PCDHGC4 (human)
PCDHGC5 (human) = tested on: PCDHGC5 (human)
PCK1 (human) = tested on: PCK1 (human)
PCNA (human) = tested on: PCNA (human)
PCTP (human) = tested on: PCTP (human)
PDCD5 = molecular target: T1, PDCD5 (UniProt O14737)
T1 sequence: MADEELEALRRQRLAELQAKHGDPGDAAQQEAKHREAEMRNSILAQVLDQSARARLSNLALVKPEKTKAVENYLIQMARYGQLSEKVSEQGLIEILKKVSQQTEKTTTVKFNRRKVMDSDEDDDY

PDCL (human) = tested on: PDCL (human)
PDE8A (human) = tested on: PDE8A (human)
PDK4 (human) = tested on: PDK4 (human)
PDXDC1 (human) = tested on: PDXDC1 (human)
PDYN (human) = tested on: PDYN (human)
[1] = tested on: PDZ and LIM domain protein 3 (human)
PDZK1 (human) = tested on: PDZK1 (human)
[2] = tested on: PDZK1-interacting protein 1 (human)
PDZK1IP1 (human) = tested on: PDZK1IP1 (human)
PECAM1 (human) = tested on: PECAM1 (human)

Q: Which binding signal (PBEF1 (human)) does the source give for “GGTGACAGGGGTATGGGGAGGGG [G4-2 biotinylated (Ct1)]” here?
A: -0.374 z-score and -0.359 z-score

Q: What about the binding signal (PBK (human)) of the same sequence?
A: -0.397 z-score

Q: What about the binding signal (PBLD (human)) of the same sequence?
A: -0.387 z-score

Q: What about the binding signal (PCDHB16 (human)) of the same sequence?
A: -0.381 z-score

Q: What about the binding signal (PCDHGC4 (human)) of the same sequence?
A: -0.367 z-score

Q: What about the binding signal (PCDHGC5 (human)) of the same sequence?
A: -0.371 z-score

Q: What about the binding signal (PCK1 (human)) of the same sequence?
A: -0.399 z-score

Q: What about the binding signal (PCNA (human)) of the same sequence?
A: -0.385 z-score

Q: And the binding signal (PCTP (human))?
A: -0.399 z-score

Q: What about the binding signal (PDCD5) of the same sequence?
A: -0.377 z-score

Q: What about the binding signal (PDCL (human)) of the same sequence?
A: -0.372 z-score

Q: And the binding signal (PDE8A (human))?
A: -0.366 z-score

Q: And the binding signal (PDK4 (human))?
A: -0.391 z-score

Q: What about the binding signal (PDXDC1 (human)) of the same sequence?
A: -0.381 z-score

Q: And the binding signal (PDYN (human))?
A: -0.373 z-score

Q: And the binding signal [1]?
A: -0.395 z-score

Q: And the binding signal (PDZK1 (human))?
A: -0.383 z-score

Q: What about the binding signal [2] of the same sequence?
A: -0.373 z-score

Q: And the binding signal (PDZK1IP1 (human))?
A: -0.368 z-score

Q: What about the binding signal (PECAM1 (human)) of the same sequence?
A: -0.36 z-score
